Data as given in patent US12389910B2, “Beta-lactams and their use as herbicides” (BASF SE, priority 2020, dated 2025).
Some of these results come from one statement about several compounds together. Some compounds share one range, which may span the group rather than tell each member.

How the values were obtained:
[1] = tested on: ECHCG; assay: greenhouse herbicidal activity, pre-emergence treatment; type: in vivo, Echinocloa crus-galli; settings: pre-emergence method, scale 0 to 100
Excerpt: (§1) The culture containers used were plastic flowerpots containing loamy sand with approximately 3.0% of humus as the substrate. The seeds of the test plants were sown separately for each species.
(§2) For the pre-emergence treatment, the active ingredients, which had been suspended or emulsified in water, were applied directly after sowing by means of finely distributing nozzles. The containers were irrigated gently to promote germination and growth and subsequently covered with transparent plastic hoods until the test plants had rooted. This cover caused uniform germination of the test plants, unless this had been impaired by the active ingredients. For the post-emergence treatment, the test plants were first grown to a height of 3 to 15 cm, depending on the plant habit, and only then treated with the active ingredients which had been suspended or emulsified in water. For this purpose, the test plants were either sown directly and grown in the same containers, or they were first grown separately as seedlings and transplanted into the test containers a few days prior to treatment.
(§3) Depending on the species, the test plants were kept at 10-25° C. or 20-35° C., respectively. The test period extended over 2 to 4 weeks. During this time, the test plants were tended, and their response to the individual treatments was evaluated.
(§4) Evaluation was carried out using a scale from 0 to 100. 100 means no emergence of the test plants, or complete destruction of at least the aerial moieties, and 0 means no damage, or normal course of growth. A good herbicidal activity is given at values of 80 to 90 and a very good herbicidal activity is given at values of 90 to 100.
(§5) The test plants used in the greenhouse experiments were of the following species: Bayer code Scientific name

[2] = tested on: AMARE; assay: greenhouse herbicidal activity, post-emergence treatment; type: in vivo, Amaranthus retroflexus; settings: post-emergence method, scale 0 to 100
Excerpt: as §1, §2, §3, §4, §5

[3] = tested on: ECHCG; assay: as above; type: in vivo, Echinocloa crus-galli; settings: post-emergence method, scale 0 to 100
Excerpt: as §1, §2, §3, §4, §5

[4] = tested on: AMARE; assay: greenhouse herbicidal activity, pre-emergence treatment; type: in vivo, Amaranthus retroflexus; settings: pre-emergence method, scale 0 to 100
Excerpt: as §1, §2, §3, §4, §5

[5] = tested on: SETVI; assay: greenhouse herbicidal activity, post-emergence treatment; type: in vivo, Setaria viridis; settings: post-emergence method, scale 0 to 100
Excerpt: as §1, §2, §3, §4, §5

[6] = tested on: APESV; assay: greenhouse herbicidal activity, pre-emergence treatment; type: in vivo, Apera spica-venti; settings: pre-emergence method, scale 0 to 100
Excerpt: as §1, §2, §3, §4, §5

[7] = tested on: SETFA; assay: as above; type: in vivo, Setaria faberi; settings: pre-emergence method, application rate 0,500 kg/ha; scale 0 to 100
Excerpt: as §1, §2, §3, §4, §5

[8] = tested on: AVEFA; assay: greenhouse herbicidal activity, post-emergence treatment; type: in vivo, Avena fatua; settings: post-emergence method, application rate 0,500 kg/ha; scale 0 to 100
Excerpt: as §1, §2, §3, §4, §5

[9] = tested on: ALOMY; assay: as above; type: in vivo, Alopercurus myosuroides; settings: post-emergence method, application rate 0,500 kg/ha; scale 0 to 100
Excerpt: as §1, §2, §3, §4, §5

[10] = tested on: ABUTH; assay: as above; type: in vivo, Abutilon theophrasti; settings: post-emergence method, application rate 0,500 kg/ha; scale 0 to 100
Excerpt: as §1, §2, §3, §4, §5

SMILES: COC(=O)[C@@H]1C=C[C@H](NC(=O)C2(C)CN(c3cccc(F)c3)C2=O)C1 (relative stereo) [compound 138]
- herbicidal activity against ECHCG ([1]; application rate 0,250 kg/ha): very good (a very good herbicidal activity is given at values of 90 to 100)
- herbicidal activity against AMARE ([2]; application rate 0,250 kg/ha): very good (a very good herbicidal activity is given at values of 90 to 100)
- herbicidal activity against ECHCG ([3]; application rate 0,250 kg/ha): very good (a very good herbicidal activity is given at values of 90 to 100)
- herbicidal activity against AMARE ([4]; application rate 0,250 kg/ha): very good (a very good herbicidal activity is given at values of 90 to 100)
- herbicidal activity against SETVI ([5]; application rate 0,250 kg/ha): very good (a very good herbicidal activity is given at values of 90 to 100)
- herbicidal activity against APESV ([6]; application rate 0,250 kg/ha): very good (a very good herbicidal activity is given at values of 90 to 100)

SMILES: COC(=O)[C@@H]1C=C[C@H](NC(=O)C2(C)CN(c3cc(F)cc(Cl)c3)C2=O)C1 (relative stereo) [compound 139]
- herbicidal activity against ECHCG ([1]; application rate 0,250 kg/ha): very good (a very good herbicidal activity is given at values of 90 to 100)
- herbicidal activity against AMARE ([2]; application rate 0,250 kg/ha): very good (a very good herbicidal activity is given at values of 90 to 100)
- herbicidal activity against ECHCG ([3]; application rate 0,250 kg/ha): very good (a very good herbicidal activity is given at values of 90 to 100)
- herbicidal activity against AMARE ([4]; application rate 0,250 kg/ha): very good (a very good herbicidal activity is given at values of 90 to 100)
- herbicidal activity against SETVI ([5]; application rate 0,250 kg/ha): very good (a very good herbicidal activity is given at values of 90 to 100)
- herbicidal activity against APESV ([6]; application rate 0,250 kg/ha): very good (a very good herbicidal activity is given at values of 90 to 100)

SMILES: COC(=O)CC(C)NC(=O)C1(C)CN(c2cc(Cl)cc(Cl)c2)C1=O (single isomer, unassigned) [compound 127]
- herbicidal activity against ECHCG ([1]; application rate 0,500 kg/ha): very good (a very good herbicidal activity is given at values of 90 to 100)
- herbicidal activity against AMARE ([2]; application rate 0,500 kg/ha): very good (a very good herbicidal activity is given at values of 90 to 100)
- herbicidal activity against ECHCG ([3]; application rate 0,500 kg/ha): very good (a very good herbicidal activity is given at values of 90 to 100)
- herbicidal activity against SETFA [7]: very good (a very good herbicidal activity is given at values of 90 to 100)
- herbicidal activity against SETVI ([5]; application rate 0,500 kg/ha): very good (a very good herbicidal activity is given at values of 90 to 100)

SMILES: CC(CC(=O)O)NC(=O)C1(C)CN(c2cc(Cl)cc(Cl)c2)C1=O (stereo not shown) [compound 12]
- herbicidal activity against AMARE ([2]; application rate 0,500 kg/ha): good (A good herbicidal activity is given at values of 80 to 90)
- herbicidal activity against ECHCG ([3]; application rate 0,500 kg/ha): very good (a very good herbicidal activity is given at values of 90 to 100)
- herbicidal activity against SETFA [7]: very good (a very good herbicidal activity is given at values of 90 to 100)
- herbicidal activity against SETVI ([5]; application rate 0,500 kg/ha): good (A good herbicidal activity is given at values of 80 to 90)
- herbicidal activity against APESV ([6]; application rate 0,500 kg/ha): very good (a very good herbicidal activity is given at values of 90 to 100)

SMILES: COC(=O)C1CC(NC(=O)C2(C)CN(c3cc(Cl)cc(Cl)c3)C2=O)C1 (stereo not shown) [compound 15]
- herbicidal activity against AMARE ([2]; application rate 0,500 kg/ha): good (A good herbicidal activity is given at values of 80 to 90)
- herbicidal activity against AVEFA [8]: very good (a very good herbicidal activity is given at values of 90 to 100)
- herbicidal activity against AMARE ([4]; application rate 0,500 kg/ha): very good (a very good herbicidal activity is given at values of 90 to 100)
- herbicidal activity against ALOMY [9]: very good (a very good herbicidal activity is given at values of 90 to 100)
- herbicidal activity against APESV ([6]; application rate 0,500 kg/ha): very good (a very good herbicidal activity is given at values of 90 to 100)

SMILES: COC(=O)CCC(C)NC(=O)C1(C)CN(c2cc(Cl)cc(Cl)c2)C1=O (stereo not shown) [compound 116]
- herbicidal activity against ECHCG ([1]; application rate 0,500 kg/ha): very good (a very good herbicidal activity is given at values of 90 to 100)
- herbicidal activity against ALOMY [9]: very good (a very good herbicidal activity is given at values of 90 to 100)
- herbicidal activity against SETVI ([5]; application rate 0,500 kg/ha): very good (a very good herbicidal activity is given at values of 90 to 100)
- herbicidal activity against APESV ([6]; application rate 0,500 kg/ha): very good (a very good herbicidal activity is given at values of 90 to 100)
- herbicidal activity against ABUTH [10]: good (A good herbicidal activity is given at values of 80 to 90)

SMILES: COC(=O)C1CCC(NC(=O)C2(C)CN(c3cc(F)cc(F)c3)C2=O)C1 (stereo not shown) [compound 119]
- herbicidal activity against AVEFA [8]: good (A good herbicidal activity is given at values of 80 to 90)
- herbicidal activity against AMARE ([4]; application rate 0,500 kg/ha): very good (a very good herbicidal activity is given at values of 90 to 100)
- herbicidal activity against ALOMY [9]: good (A good herbicidal activity is given at values of 80 to 90)
- herbicidal activity against SETVI ([5]; application rate 0,500 kg/ha): good (A good herbicidal activity is given at values of 80 to 90)
- herbicidal activity against APESV ([6]; application rate 0,500 kg/ha): very good (a very good herbicidal activity is given at values of 90 to 100)
